Values are relative to the signal before dosing, not to a vehicle control; the signal also falls without drug.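 Labels refer to human fibroblasts, largely primary: uterine (C12385, HUF), lung (H6013), bone (Hs27A), adrenal (HADF), skin (WS1), plus mammary HMF and breast cancer-associated Hs343T. Cancer lines are basal-like or mesenchymal-like triple-negative breast cancer. The paper counts as hits responses shifting over 3x the replicate standard deviation. The tissue of the other fibroblasts is not given here.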
Test system: HCC1143
Assay: relative JC-1 red fluorescence (viability) vs pre-drug, coculture with fibroblast (fraction); higher = more viable cancer cells
Details: 100 µM
Method: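 JC-1 labelled TNBC cells cocultured 1:1 (1,500 cells each) with CellTrace Violet stained primary or stromal fibroblasts in 384-well plates in FluoroBrite medium, treated with one of 42 anticancer drugs at 0.1, 1, 10 or 100 uM. JC-1 red fluorescence (mitochondrial integrity in cancer cells only) was read by plate reader every 8 h for 72 h. Values are normalised to each well's pre-drug value. The stock of one drug was tenfold lower, so its dose labels may be too high.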

CN(C)CCOc1ccc(/C(=C(/CCCl)c2ccccc2)c2ccccc2)cc1 [Toremifene]
relative JC-1 red fluorescence
Details	8 h	16 h	24 h	32 h	40 h	48 h	56 h	64 h	72 h
coculture fibroblast: C12385	0.326	0.159	0.13	0.102	0.0697	0.052	0.0333	0.0143	0.0273
coculture fibroblast: H6013	0.363	0.254	0.233	0.202	0.17	0.159	0.122	0.0985	0.0397
coculture fibroblast: H6019	0.3569	0.23	0.203	0.169	0.14	0.132	0.109	0.0865	0.0723
coculture fibroblast: H6076	0.362	0.213	0.203	0.209	0.128	0.109	0.0724	0.0463	0.0353
coculture fibroblast: H6231	0.547	0.362	0.284	0.332	0.212	0.184	0.147	0.109	0.0912
coculture fibroblast: HADF	0.379	0.246	0.202	0.172	0.138	0.123	0.0901	0.0637	0.00965
coculture fibroblast: HCFa	0.352	0.25	0.234	0.21	0.171	0.156	0.122	0.0955	0.0437
coculture fibroblast: HCPF	0.5461	0.366	0.302	0.329	0.217	0.188	0.148	0.112	0.096
coculture fibroblast: HHSteC	0.28	0.213	0.192	0.158	0.126	0.11	0.0769	0.0563	0.0285
coculture fibroblast: HMF	0.43	0.199	0.171	0.193	0.0986	0.0805	0.0483	0.0226	0.0355
coculture fibroblast: HPFa	0.457	0.378	0.345	0.29	0.246	0.229	0.188	0.161	0.141
coculture fibroblast: HUF	0.414	0.317	0.28	0.25	0.216	0.196	0.158	0.133	0.11
coculture fibroblast: Hs5	0.487	0.336	0.307	0.309	0.208	0.179	0.144	0.111	0.097
coculture fibroblast: Hs27A	0.333	0.253	0.22	0.223	0.174	0.191	0.156	0.142	0.0795
coculture fibroblast: Hs343T	0.336	0.197	0.174	0.193	0.107	0.0889	0.0567	0.0332	0.0132
coculture fibroblast: WS1	0.35	0.194	0.175	0.138	0.105	0.0883	0.0657	0.0455	0.0381
